Assays:
[1] = GC-FID analysis of fatty acids in cell supernatant; parameters: species or system human; conditions: protocol of Example 4a, day 42; differences between media and supernatant
[2] = UHPLC quantification of lactose and human milk oligosaccharides in primary cell supernatant; conditions: day 42, 3D differentiation of hiPSC line 603; estimated limit 0.1 mg/L

Compound: CCCCCCCCCC(=O)O [C-10:0]
- Detected amount in cell supernatant [1]: 0.38 mg/100 mL

Compound: CCCCCCCC/C=C\CCCCCCCC(=O)O [C-18:1 n9]
- Detected amount in cell supernatant [1]: 18.82 mg/100 mL

Compound: CCCCCCCCCCCCCCC(=O)O [C-15:0]
- Detected amount in cell supernatant [1]: 0.41 mg/100 mL

Compound: CCCCCCCCCCCCCCCC(=O)O [C-16:0]
- Detected amount in cell supernatant [1]: 1.85 mg/100 mL

Compound: CC(=O)N[C@H]1[C@H]([C@H](O)[C@H](O)CO)O[C@@](OC[C@H]2O[C@@H](O[C@H]3[C@H](O)[C@@H](O)[C@H](O)O[C@@H]3CO)[C@H](O)[C@@H](O)[C@H]2O)(C(=O)O)C[C@@H]1O [6′SL]
- amount detected in primary cell supernatants [2]: 0.32 mg/L

Compound: CCCCCCCCCCCCCCCCC(=O)O [C-17:0]
- Detected amount in cell supernatant [1]: 0.09 mg/100 mL

Compound: CCCCCCCCCCCCCCCCCCCC(=O)O [C-20:0]
- Detected amount in cell supernatant [1]: 0.13 mg/100 mL

Compound: CCCCCCCC/C=C\CCCCCCCCCC(=O)O [C-20:1 n9]
- Detected amount in cell supernatant [1]: 0.11 mg/100 mL

Compound: CCCCC/C=C\C/C=C\CCCCCCCC(=O)O [C-18:2 n6]
- Detected amount in cell supernatant [1]: 2.16 mg/100 mL

Compound: CCCC(=O)O [C-4:0]
- Detected amount in cell supernatant [1]: 2.53 mg/100 mL

Compound: CCCCCCCC(=O)O [C-8:0]
- Detected amount in cell supernatant [1]: 0.49 mg/100 mL

Compound: OC[C@H]1O[C@@H](O[C@H]2[C@H](O)[C@@H](O)C(O)O[C@@H]2CO)[C@H](O)[C@@H](O)[C@H]1O (some centres unmarked) [Lactose]
- amount detected in primary cell supernatants [2]: 0.22 mg/L

Compound: CCCCCCCCCCCCCCCCCC(=O)O [C-18:0]
- Detected amount in cell supernatant [1]: 0.97 mg/100 mL

Compound: CCCCCCCCCCCCCCCCCCCCCC(=O)O [C-22:0]
- Detected amount in cell supernatant [1]: 0.29 mg/100 mL

Compound: CC/C=C\C/C=C\C/C=C\CCCCCCCC(=O)O [C-18:3 n3]
- Detected amount in cell supernatant [1]: 0.08 mg/100 mL

Compound: CCCCCCCCCCCCCC(=O)O [C-14:0]
- Detected amount in cell supernatant [1]: 0.44 mg/100 mL

Compound: CCCCCC/C=C\CCCCCCCC(=O)O [C-16:1n7]
- Detected amount in cell supernatant [1]: 0.08 mg/100 mL

Reference: patent US20250297216A1, “METHOD FOR PRODUCING MILK LIKE PRODUCTS” (SOCIETE DES PRODUITS NESTLE S.A., priority 2021, published 2025)
